In patent US7790196B2, “Extracellular vesicles from non-pathogenic amoebae useful as vehicle for transferring a molecule of interest to an eukaryotic cell” (Universite Pierre et Marie Curie- Paris VI, priority 2003, dated 2010):
At least one structure is not confirmed: it was looked up by name or label, or the drawing left a doubt.

What was measured:
[1] = test system: Dd cells; assay: Vesicle-mediated release of cargo molecule from Dd cells (micro-spectrofluorimetry of “12,000” vesicles); type: cell-based, Dictyostelium discoideum; settings: 25 μM
Procedure: The capacity of Dd cells to internalise different exogenous molecules was studied. Further, their ability to release vesicles, in particular the “12,000” vesicles, carrying a broad-spectrum of molecules of interest was assessed. Flow cytometry and micro-spectrofluorimetry were used to measure respectively the cell internalisation and the vesicle-mediated release of the fluorescent cargo molecule as a function of incubation time in the growth medium. Growing Dd cells were incubated for different periods of time up to 72 h in the presence of the exogenous molecule. Fractions of the cells were fixed in 2% paraformaldehyde after each one of these increasing incubation times. Simultaneously, the externalised “12,000” vesicles were prepared from aliquots of the growth medium and concentrated (×20). As controls, Dd cells were grown in parallel without the cargo molecule and handled the same. Moreover, cell counting during growth allowed to check for any cytotoxicity of the studied molecule as a function of time. Cell and vesicle samples were kept at 4° C. until measurements.

[2] = test system: Dd cells; assay: Cell internalisation of exogenous cargo molecule by growing Dd cells (flow cytometry); type: cell-based, Dictyostelium discoideum; settings: 25 μM

**Q.** With `Cc1cc(O)c2c(=O)c3c(O)cc(O)c4c5c(O)cc(O)c6c(=O)c7c(O)cc(C)c8c1c2c(c34)c(c78)c65` [hypericin] as the compound, how does the “release of vesicles carrying cargo into growth medium” value (shortened to “release”) ([1]; after a 4 h-incubation) read?
**A.** released but very few vesicles

**Q.** What about the “release” value ([1]; after a 24 h-incubation) of the same compound?
**A.** a significant amount of hypericin-loaded vesicles was collected

**Q.** And the “release” value ([1]; after a 48 h-incubation)?
**A.** hypericin was found associated with the high amount of vesicles released into the growth medium

**Q.** And the “cell content of cargo molecule” value ([2]; after a 24 h-incubation)?
**A.** lost part of their hypericin content

**Q.** What about the “cell content of cargo molecule” value ([2]; after a 48 h-incubation) of the same compound?
**A.** lost most of their staining

**Q.** What about the “staining of Dd cells by the cargo molecule” value ([2]; early incubation) of the same compound?
**A.** rapidly stained
